From US8957022B2, “Multimeric tie 2 agonists and uses thereof in stimulating angiogenesis” (Sunnybrook Health Sciences Centre, priority 2006, dated 2015)
Some entries share one result that the patent states for a list of compounds.

Sequences of proteins named here, by UniProt entry; tags and fusion partners are left off. Residues count along the entry.
UniProt Q02763, 23-1124: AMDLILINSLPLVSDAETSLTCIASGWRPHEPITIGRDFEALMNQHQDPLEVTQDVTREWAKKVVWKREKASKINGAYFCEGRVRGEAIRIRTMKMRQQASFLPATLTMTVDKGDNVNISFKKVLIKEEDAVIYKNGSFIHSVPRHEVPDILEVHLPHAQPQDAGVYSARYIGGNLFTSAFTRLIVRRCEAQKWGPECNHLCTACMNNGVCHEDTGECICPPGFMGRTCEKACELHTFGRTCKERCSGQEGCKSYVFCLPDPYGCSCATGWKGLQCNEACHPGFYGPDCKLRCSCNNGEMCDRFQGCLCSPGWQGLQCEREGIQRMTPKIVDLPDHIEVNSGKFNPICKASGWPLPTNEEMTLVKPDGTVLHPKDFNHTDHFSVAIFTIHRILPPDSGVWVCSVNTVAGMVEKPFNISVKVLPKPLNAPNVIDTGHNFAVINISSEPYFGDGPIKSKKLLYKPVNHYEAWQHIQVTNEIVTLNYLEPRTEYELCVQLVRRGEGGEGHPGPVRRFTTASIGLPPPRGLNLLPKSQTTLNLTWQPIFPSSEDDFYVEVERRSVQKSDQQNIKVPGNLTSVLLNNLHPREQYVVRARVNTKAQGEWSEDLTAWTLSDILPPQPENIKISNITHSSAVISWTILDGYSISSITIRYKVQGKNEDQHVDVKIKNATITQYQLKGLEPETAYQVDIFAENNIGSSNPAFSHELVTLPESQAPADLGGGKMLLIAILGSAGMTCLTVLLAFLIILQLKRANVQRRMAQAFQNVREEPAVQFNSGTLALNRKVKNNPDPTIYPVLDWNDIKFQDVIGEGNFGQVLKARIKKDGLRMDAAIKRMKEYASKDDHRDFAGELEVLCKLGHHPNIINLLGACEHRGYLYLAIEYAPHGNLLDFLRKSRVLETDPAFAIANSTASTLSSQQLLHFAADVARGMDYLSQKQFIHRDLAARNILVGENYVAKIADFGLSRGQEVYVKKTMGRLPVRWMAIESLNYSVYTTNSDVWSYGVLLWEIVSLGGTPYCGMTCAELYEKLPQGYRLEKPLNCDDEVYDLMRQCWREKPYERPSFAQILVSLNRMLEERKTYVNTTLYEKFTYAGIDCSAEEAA

Biological target: Tie 2 (Homo sapiens, UniProt Q02763)
Experiment: Tie 2 activation (pY992 Tie 2 immunoblot) in HUVEC
Type: cell-based
Set-up: downstream signalling pathways in human umbilical vein endothelial cells (HUVEC) (Cambrex, N.J.); host or cells: HUVEC, passage 3-9
Conditions: 10% FBS, Ang 1 400 ng/ml, clustered Vasculotide 2 nM
Protocol: Having established that Vasculotide was able to bind Tie 2 (see Example 2), the ability of Vasculotide, when clustered with avidin in a 4:1 ratio (Vasculotide:avidin), to activate the Tie 2 receptor was tested by examining several well established downstream signalling pathways in human umbilical vein endothelial cells (HUVEC) (Cambrex, N.J.). Such signalling pathways are described in, for example, Kim, I. et al. (2000) Circ. Res. 9:952-959; Fujikawa, K. et al. (1999) Exp. Cell. Res. 2:663-672; Babaei, S. et al. (2003) Am. J. Pathol. 6:1927-1936.
HUVEC were grown on 6-well or 10 cm plates (Nunc) coated with gelatin (Sigma). HUVEC were cultured in F12 growth medium containing 10% fetal bovine serum (FBS), 0.1 mg/ml heparin sulphate, 1× penicillin, 1× streptomycin, 1× glutamine, VEGF 10 ng/ml, EGF 10 ng/ml, bFGF 5 ng/ml. All HUVEC were used between passage 3-9.
HUVEC were stimulated with one of either Ang 1 (R&D Systems), Vasculotide, avidin or clustered Vasculotide (preclustered with a 4:1 molar ratio of peptide:avidin in PBS for 2 hours at 4° C.) at various doses. Stimulations with Vasculotide were performed in full serum containing growth media for 15 minutes unless otherwise indicated. Cell lysate preparations and immunoblot analysis were performed by standard methods. […]

B1: Ang 1: angiopoietin 1, protein growth factor ligand for Tie 2 (R&D Systems) (protein, UniProt Q15389 16-498, looked up)
Angiopoietin-1: HIGCSNQRRSPENSGRRYNRIQHGQCAYTFILPEHDGNCRESTTDQYNTNALQRDAPHVEPDFSSQKLQHLEHVMENYTQWLQKLENYIVENMKSEMAQIQQNAVQNHTATMLEIGTSLLSQTAEQTRKLTDVETQVLNQTSRLEIQLLENSLSTYKLEKQLLQQTNEILKIHEKNSLLEHKILEMEGKHKEELDTLKEEKENLQGLVTRQTYIIQELEKQLNRATTNNSVLQKQQLELMDTVHNLVNLCTKEGVLLKGGKREEEKPFRDCADVYQAGFNKSGIYTIYINNMPEPKKVFCNMDVNGGGWTVIQHREDGSLDFQRGWKEYKMGFGNPSGEYWLGNEFIFAITSQRQYMLRIELMDWEGNRAYSQYDRFHIGNEKQNYRLYLKGHTGTAGKQSSLILHGADFSTKDADNDNCMCKCALMLTGGWWFDACGPSNLNGMFYTAGQNHGKLNGIKWHYFKGPSYSLRSTTMMIRPLDF
Time after which Tie 2 phosphorylation returns to almost basal levels: > 2 h
